Experimental data as given in article PMC4333373.
For some of these results: No signal at the amounts used counts as a negative. For some of these results: For at least one entry, the source does not settle the construct or the ends of the probe. For some of these results: The comparison behind a weaker result is the experiment's own reference, which may not be listed here.

Sequences of proteins named here, by UniProt entry; tags and fusion partners are left off. A change or cut given only in a name is not applied to a line headed by its entry.
UniProt P26497: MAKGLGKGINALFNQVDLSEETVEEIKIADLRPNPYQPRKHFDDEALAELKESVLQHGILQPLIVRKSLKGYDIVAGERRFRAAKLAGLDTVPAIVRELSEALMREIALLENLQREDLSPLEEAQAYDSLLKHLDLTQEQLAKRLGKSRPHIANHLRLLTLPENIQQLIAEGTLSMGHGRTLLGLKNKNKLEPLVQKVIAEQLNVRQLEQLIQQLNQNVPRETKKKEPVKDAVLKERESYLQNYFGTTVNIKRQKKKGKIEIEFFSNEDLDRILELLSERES

Tests used:
[1] = biological target: ParB (Spo0J) (Bacillus subtilis 168) (UniProt P26497); assay: SEC-MALS; conditions: 50 mM Hepes-KOH pH 7.5, 100 mM KCl, 2.5 mM MgCl2, 0.1 mg/ml BSA, 1 mM DTT, 20 nM DNA, recombinant protein, residues 1-282, protein details: untagged
[2] = biological target: ParB (Spo0J) (Bacillus subtilis 168) (UniProt P26497); assay: competition with a labelled probe; conditions: 5 uM reverses condensation of parS MT DNA, larger amount than parS needed to prevent it; 50 mM Hepes-KOH pH 7.5, 100 mM KCl, 2.5 mM MgCl2, 0.1 mg/ml BSA, 1 mM DTT, 20 nM DNA; EMSA also 2.5% Ficoll, room temperature 30 min then ice 5 min, gel at 4 C; recombinant protein; residues 1-282; protein details: untagged; label: 5'-Hex on forward strand (SEC-MALS)
[3] = biological target: ParB (Spo0J) (Bacillus subtilis 168) (UniProt P26497); assay: native MS; conditions: no Mg2+, 300 mM ammonium acetate; 50 mM Hepes-KOH pH 7.5, 100 mM KCl, 2.5 mM MgCl2, 0.1 mg/ml BSA, 1 mM DTT, 20 nM DNA; recombinant protein; residues 1-282; protein details: untagged; label: 5'-Hex on forward strand

“AGAACGTGCCCAGGGAGACAAAGA (double strand) [24-bp non-specific]”: no binding ([1]; 9 uM ParB2, 10 uM DNA, label: 5'-Hex on forward strand).
“CAGCAGTTGAATCAGAACGTGCCCAGGGAGACAAAGAAAAAAGAACCTGT (double strand) [50-bp non-specific]”: binds ([1]; label: 5'-Hex on forward strand (SEC-MALS)); binds more weakly [2].
“TGTTCGCCAACTTGAGCAGCTGATTCAGCAGTTGAATCAGAACGTGCCCAGGGAGACAAAGAAAAAAGAACCTGTGAAAGATGCGGTTCTAAAAGAACGG (double strand) [100-bp non-specific]”: no binding [3].
